# Results from one PubChem assay

Source: PubChem BioAssay AID1224904 (Broad Institute, 2016).

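Selective DUX4 reporter inhibition in doxycycline-induced 293T-iDUX4 cells, scored as Gaussia percent activity minus Italica percent activity, after a 24-hour treatment.
The test concentration is not given here.
Percent difference between the Gaussia and Italica channels; more negative values mean more selective suppression of the DUX4 reporter, and higher values mean less activity.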

Values are in %.
How 0% and 100% were set is not given here.
Common to all entries: measured here: selective DUX4 reporter inhibition.
This is a side read-out of the assay, for part of the compounds, not drawn at random.

| # | Compound | Gaussia minus Italica difference (%) |
|---|---|---|
| 1 | `O=C(C[C@H]1CC[C@H]2[C@@H](COC[C@@H](O)CN2Cc2nccs2)O1)NCc1ccc(-c2ccccc2)cc1` | -4.985 |
| 2 | `COc1cccc(-c2ccc3c(c2)[C@H]2[C@H](CCN2S(=O)(=O)c2ccccc2C)[C@@H](CO)N3C)c1` | 18.84 |
| 3 | `COc1ccc(S(=O)(=O)N2CC[C@@H]3[C@@H](CO)Nc4ccc(C5=CCCCC5)cc4[C@@H]32)cc1` | -5.336 |
| 4 | `O=C(Nc1ccc(C(F)(F)F)cc1)Nc1ccc2c(c1)[C@H]1C[C@H](CC(=O)N3CCc4ccccc4C3)O[C@@H](CO)[C@H]1O2` | -4.147 |
| 5 | `C/C=C/c1ccc([C@@H]2[C@H](CO)N(C(=O)C3CCCC3)C23CN(S(C)(=O)=O)C3)cc1` | -7.928 |
| 6 | `Cc1noc(C)c1S(=O)(=O)Nc1ccc2c(c1)C(=O)N([C@H](C)CO)C[C@H](C)[C@@H](CN(C)C(=O)CCC(F)(F)F)OCCCC[C@H](C)O2` | 11.28 |
| 7 | `O=S(=O)(c1ccccc1)N1CCCCN2[C@H](C1)[C@H](c1ccc(-c3ccccc3)cc1)[C@@H]2CO` | -9.077 |
| 8 | `COc1cccc(S(=O)(=O)Nc2ccc3c(c2)[C@@H]2C[C@@H](CC(=O)NCc4cccc(F)c4)O[C@@H](CO)[C@@H]2O3)c1` | -9.105 |
| 9 | `O=S(=O)(Cc1ccccc1)N1CCCCN2[C@@H](CO)[C@@H](c3ccc(-c4ccc(F)cc4)cc3)[C@@H]2C1` | 8.532 |
| 10 | `O=C(c1ccc2c(c1)OCO2)N1C[C@@H]2N[C@H](C1)C2c1ccc(-c2ccccc2F)cc1` (stereo partly drawn) | -20.66 |
| 11 | `O=C(C[C@H]1CC[C@@H]2[C@H](COC[C@H](O)CN2Cc2ccccc2F)O1)N1CCc2ccccc2C1` | -7.541 |
| 12 | `CCN1[C@@H]2Cn3c(ccc(/C=C/c4ccccc4)c3=O)[C@H]1[C@@H](C(=O)NC1Cc3ccccc3C1)[C@@H]2CO` | -11.96 |
| 13 | `CC(C)COC(=O)N(C)C[C@@H]1OCc2ccccc2-c2c(n(C)c3ccccc23)C(=O)N([C@@H](C)CO)C[C@@H]1C` | -11.33 |
| 14 | `C[C@H]1CN([C@@H](C)CO)C(=O)c2ccccc2-c2ccccc2CO[C@H]1CN(C)Cc1cccc(F)c1` | -2.173 |
| 15 | `COc1ccccc1-c1ccc2c(c1)[C@H]1[C@H](CCN1S(=O)(=O)c1ccccc1F)[C@@H](CO)N2` | 37.74 |
| 16 | `O=C(C1CCC1)N1CC[C@@H]2[C@H](CO)Nc3ccc(C#Cc4ccc(F)cc4)cc3[C@@H]21` | -11.22 |
| 17 | `COc1ccccc1-c1ccc(C2[C@@H]3CN(S(=O)(=O)c4ccc(F)cc4)C[C@H]2N3)cc1` (stereo partly drawn) | -24.33 |
| 18 | `C[C@@H]1CN([C@H](C)CO)C(=O)c2c(c3ccccc3n2C)-c2ccccc2CO[C@H]1CN(C)Cc1cccc(C(F)(F)F)c1` | -15.11 |
| 19 | `CO[C@H]1CC[C@H]2CCN(C)C(=O)[C@H](C)N(C)C(=O)c3cccc(C#N)c3OC[C@H]1O2` | -3.544 |
| 20 | `COc1ccc2c3c(n(C)c2c1)[C@H](CO)N(C(=O)C1CC1)CC31CN(Cc2ccccc2OC)C1` | 0.4042 |
| 21 | `CC(C)CC#Cc1ccc([C@@H]2[C@@H](CO)N3CCCCN(C(=O)NC4CCCC4)C[C@@H]23)cc1` | -5.841 |
| 22 | `COc1cccc(-c2ccc3c(c2)[C@H]2[C@H](CCN2C(=O)c2cccc(F)c2)[C@@H](CO)N3)c1` | 23.79 |
| 23 | `Cc1cccc(-c2ccc([C@H]3[C@H](CO)N4CCCCN(S(=O)(=O)c5cccs5)C[C@@H]34)cc2)c1` | -24.71 |
| 24 | `O=C(CC1CC1)N1CC(=O)N2[C@H](CO)[C@H](c3ccc(C#Cc4cccc(F)c4)cc3)[C@H]2C1` | -14.41 |
| 25 | `O=C(c1ccc(F)cc1)N1CC(=O)N2[C@H](CO)[C@@H](c3ccc(C#CC4CCCCC4)cc3)[C@H]2C1` | -7.121 |
| 26 | `CO[C@@H]1CN(C)C(=O)c2ccc(NC(=O)c3cccc(Oc4ccccc4)c3)cc2OC[C@H](C)NC[C@H]1C` | 13.67 |
| 27 | `O=S(=O)(Cc1ccccc1)N1CCCCN2[C@H](C1)[C@H](c1ccc(-c3ccc(F)cc3)cc1)[C@@H]2CO` | 16.98 |
| 28 | `OC[C@H]1[C@@H](c2ccc(-c3ccccc3F)cc2)[C@@H]2CN(Cc3ccncc3)CCCCN12` | -3.896 |
| 29 | `C[C@@H]1CN([C@@H](C)CO)C(=O)c2c(c3ccccc3n2C)-c2ccccc2CO[C@H]1CN(C)S(=O)(=O)c1ccc([N+](=O)[O-])cc1` | 15.92 |
| 30 | `COc1ccc(C#Cc2ccc([C@@H]3[C@H]4CN(C(=O)Cc5cccnc5)CCCCN4[C@H]3CO)cc2)cc1` | -15.16 |
| 31 | `C[C@H](CO)N1C[C@H](C)[C@H](CN(C)C(=O)Nc2ccccc2C(F)(F)F)OCc2ccccc2-c2c(n(C)c3ccccc23)C1=O` | 13.42 |
| 32 | `C[C@@H]1CN([C@@H](C)CO)C(=O)c2c(c3ccccc3n2C)-c2ccccc2CO[C@H]1CN(C)Cc1ccccc1C(F)(F)F` | -11.63 |
| 33 | `O=C(Nc1ccc2c(c1)OCO2)N1C[C@@H]2N[C@H](C1)C2c1ccc(C=Cc2ccccc2)cc1` (stereo partly drawn) | 1.845 |
| 34 | `O=C(CN1CCOCC1)N1CCCCN2[C@H](C1)[C@@H](c1ccc(C#Cc3ccccc3F)cc1)[C@@H]2CO` | 1.025 |

Once more, the final 4:

| Compound | Gaussia minus Italica difference (%) |
|---|---|
| `C[C@H](CO)N1C[C@H](C)[C@H](CN(C)C(=O)Nc2ccccc2C(F)(F)F)OCc2ccccc2-c2c(n(C)c3ccccc23)C1=O` | 13.42 |
| `C[C@@H]1CN([C@@H](C)CO)C(=O)c2c(c3ccccc3n2C)-c2ccccc2CO[C@H]1CN(C)Cc1ccccc1C(F)(F)F` | -11.63 |
| `O=C(Nc1ccc2c(c1)OCO2)N1C[C@@H]2N[C@H](C1)C2c1ccc(C=Cc2ccccc2)cc1` (stereo partly drawn) | 1.845 |
| `O=C(CN1CCOCC1)N1CCCCN2[C@H](C1)[C@@H](c1ccc(C#Cc3ccccc3F)cc1)[C@@H]2CO` | 1.025 |